Data: publication PMC8906905
These are yes or no findings as the source states them, for the method shown. In cells and extracts the contact can be indirect. A yes stands for co-enrichment or nearness to the bait. Other partners may have been found. Where a sequence is shown, tags or fusion partners need not be part of it.

By UniProt entry, the sequences of proteins in these tests, tags left out. Where a name states a change or a piece, a line headed by the entry shows the natural chain unless it says otherwise.
UniProt P05556: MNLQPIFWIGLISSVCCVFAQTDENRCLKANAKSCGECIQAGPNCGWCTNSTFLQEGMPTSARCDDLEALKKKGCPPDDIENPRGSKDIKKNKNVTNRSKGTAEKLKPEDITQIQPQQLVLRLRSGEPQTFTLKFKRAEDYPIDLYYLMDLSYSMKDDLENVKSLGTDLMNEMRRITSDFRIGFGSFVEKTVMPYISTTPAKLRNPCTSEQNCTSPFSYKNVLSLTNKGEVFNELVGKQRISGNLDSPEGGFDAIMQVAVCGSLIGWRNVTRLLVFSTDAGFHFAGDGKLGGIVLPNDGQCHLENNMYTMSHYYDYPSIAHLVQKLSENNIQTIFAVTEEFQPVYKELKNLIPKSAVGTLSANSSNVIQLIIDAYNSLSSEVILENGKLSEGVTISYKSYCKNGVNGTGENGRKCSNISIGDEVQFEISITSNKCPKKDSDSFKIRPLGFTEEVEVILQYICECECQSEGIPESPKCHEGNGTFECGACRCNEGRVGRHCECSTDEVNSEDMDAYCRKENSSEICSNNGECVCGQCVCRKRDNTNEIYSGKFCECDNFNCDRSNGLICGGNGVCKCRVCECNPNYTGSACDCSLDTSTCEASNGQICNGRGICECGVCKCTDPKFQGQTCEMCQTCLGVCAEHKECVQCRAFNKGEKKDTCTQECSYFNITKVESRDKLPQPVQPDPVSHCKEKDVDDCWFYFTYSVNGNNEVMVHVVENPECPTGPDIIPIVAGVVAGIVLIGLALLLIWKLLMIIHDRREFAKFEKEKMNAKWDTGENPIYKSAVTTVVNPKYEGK

Biological target: T1, FLAG-Tspan9, transfected in HEK 293T cells (human) (UniProt O75954)
T1 sequence: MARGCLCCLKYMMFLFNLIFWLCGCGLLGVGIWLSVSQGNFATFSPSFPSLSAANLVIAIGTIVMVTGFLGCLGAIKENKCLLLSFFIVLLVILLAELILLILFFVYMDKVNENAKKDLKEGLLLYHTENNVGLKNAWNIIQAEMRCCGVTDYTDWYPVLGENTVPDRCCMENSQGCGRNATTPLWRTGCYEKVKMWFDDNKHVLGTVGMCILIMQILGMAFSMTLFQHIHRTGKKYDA
Assay: affinity purification with mass spectrometry; HEK 293T cells transfected with FLAG-Tspan9 or FLAG empty vector, 48 h, immunoprecipitated with anti-FLAG M2 agarose beads, interacting proteins identified by mass spectrometry

binding: binds
Substance: integrin β1, endogenous in HEK 293T cells (from UniProt P05556 21-798) (receptor)
